For 1 compound, correlation factor r results are on record in PMC5618632, “In Vitro Glucuronidation of Wushanicaritin by Liver Microsomes, Intestine Microsomes and Expressed Human UDP-Glucuronosyltransferase Enzymes” (International Journal of Molecular Sciences, 2017).

Molecules are shown by their SMILES.

A short description of the data set: Activity correlation analysis in a bank of individual HLMs (n = 12). In kind it is in vitro ADME, human.

On to `COc1ccc(-c2oc3c(CCC(C)(C)O)c(O)cc(O)c3c(=O)c2O)cc1` [wushanicaritin], for which the correlation factor r came to 0.407 (G1 vs AZT glucuronidation (UGT2B7 marker), p = 0.189); 0.609 (G1 vs CDCA glucuronidation (UGT1A3 marker), p = 0.036); 0.582 (G1 vs propofol glucuronidation (UGT1A9 marker), p = 0.047); 0.847 (G1 vs β-estradiol glucuronidation (UGT1A1 marker), p = 0.0005); 0.470 (G2 vs AZT glucuronidation (UGT2B7 marker), p = 0.123); 0.638 (G2 vs CDCA glucuronidation (UGT1A3 marker), p = 0.026). Moreover, the correlation factor r by setting is: (G2 vs propofol glucuronidation (UGT1A9 marker), p = 0.035) 0.611; (G2 vs β-estradiol glucuronidation (UGT1A1 marker), p = 0.049) 0.577.
